Results reported in patent US5336485A, “Method for protecting animals against tacrine induced cytotoxic injury using sterol compounds” (priority 1993, dated 1994).
For part of these data: The name of at least one read-out is uncertain. For at least one compound, name, drawing or mass did not settle the structure.

How the values were obtained:
male Sprague-Dawley rats = experiment: CCl4 induced lethality in rats; format: in vivo, rat
Procedure: The in vivo effect of alpha-TS was tested by administering a lethal oral dose of carbon tetrachloride (CC14) to male Sprague-Dawley rats.
In the experiment described in Table 3, a single dose of alpha-TS dissolved in peanut oil:ethanol (3:2) was given to male Sprague-Dawley rats. The dose was given 24 hours prior to an orally administered CCl4 challenge dissolved in peanut oil. Two to nine animals were tested per treatment. The control group comprised rats pretreated with the vehicle only. Survival was monitored for at least 7 days after the toxic insult.
In vivo experiments were performed to determine if the time the ionizable tocopherol analog (alpha-TS) is administered affects the cytoprotective functions. Male Sprague-Dawley rats were given a 100 mg/kg intraperitoneal dose of a tocopherol or succinate analog and were given a lethal dose of CCl4 (2.9g/kg by oral gavage). Table 7 contrasts the times of administration of the tocopherol or succinate analog and the times of administration of the lethal dose of CCl4 with the survival of the rats in the study (3to 6 rats per protective treatment).
Several tocopherol and succinate analogs were tested for CCl4 induced lethality. […] Three to six animals were analyzed per treatment. The rats were monitored for seven days. […]

liver = experiment: CCl4 induced hepatotoxicity in rats (serum AST/ALT); format: in vivo, rat; settings: serum enzyme levels
Procedure: In vivo experiments were performed to determine if alpha-TS administration protects the liver from chemical toxicity. The liver is the target organ for CCl4. CCl4 is a hepatotoxic agent that induces centrilobular liver necrosis through its metabolism to free radicals. Male Sprague-Dawley rats were given an intraperitoneal dose (100 mg/kg) of a tocopherol analog 24 hours prior to a CCl4 challenge (2.9g/kg given by oral garage). Forty eight hours after the challenge, the rats were sacrificed and the levels of aspartate aminotransferase (AST) and alanine aminotransferase (ALT) were measured.
As discussed above, SGOT levels provide a clinical assessment of hepatotoxicity (liver damage).
Succinate analogs were administered to male Sprague-Dawley rats 20 hours prior to a 1 g CCl4 /kg body weight oral challenge and the AST and ALT serum enzyme levels were measured 48 hours after the challenge.
Similar to the experiments were described above, the ionizable congeners were administered to Sprague-Dawley rats by i.p. injection of a 100 mg ionizable congener/kg body weight dose 20 hours prior to oral administration of a 1 g/kg dose of CCl4, and the AST and ALT levels were measured 48 hours after the CCl4 challenge.

COC(=O)CCC(=O)O [Monomethyl Succinate, reference compound]
cytoprotection (Table 7, in words) (male Sprague-Dawley rats; rat, in vivo): not cytoprotective

CCCCCCCCCCCCCCCCOC(=O)CCC(=O)O [Palmityl succinate]
protection against CCl4 hepatotoxicity (in words) (liver): generally not protective

Cc1c(C)c2c(c(C)c1OC(=O)CCC(=O)O)CC[C@@](C)(CCC[C@H](C)CCC[C@H](C)CCCC(C)C)O2 [alpha-TS, d-alpha-tocopheryl succinate]
Days Survived After CCl4 Treatment (male Sprague-Dawley rats; 50 or 100 mg/Kg, single dose 24 h prior): > 7 days
